The results in this text go back to paper PMC11266670.

Chains of the proteins cited; added tags and fusions are not shown. Lines headed by an entry give the natural chain unless they say otherwise; changes in a name come on top.
UniProt Q62280: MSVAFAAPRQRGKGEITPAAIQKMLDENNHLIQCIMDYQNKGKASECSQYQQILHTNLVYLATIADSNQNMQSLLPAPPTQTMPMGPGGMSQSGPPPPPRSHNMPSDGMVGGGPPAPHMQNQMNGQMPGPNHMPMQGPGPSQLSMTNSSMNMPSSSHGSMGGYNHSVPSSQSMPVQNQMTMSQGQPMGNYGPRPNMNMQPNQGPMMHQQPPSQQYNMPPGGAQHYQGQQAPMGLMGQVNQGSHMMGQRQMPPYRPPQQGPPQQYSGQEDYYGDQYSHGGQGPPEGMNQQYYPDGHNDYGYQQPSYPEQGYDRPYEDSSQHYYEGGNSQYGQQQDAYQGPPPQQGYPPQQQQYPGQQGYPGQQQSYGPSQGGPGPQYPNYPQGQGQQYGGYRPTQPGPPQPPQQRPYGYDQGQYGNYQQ
UniProt P97496: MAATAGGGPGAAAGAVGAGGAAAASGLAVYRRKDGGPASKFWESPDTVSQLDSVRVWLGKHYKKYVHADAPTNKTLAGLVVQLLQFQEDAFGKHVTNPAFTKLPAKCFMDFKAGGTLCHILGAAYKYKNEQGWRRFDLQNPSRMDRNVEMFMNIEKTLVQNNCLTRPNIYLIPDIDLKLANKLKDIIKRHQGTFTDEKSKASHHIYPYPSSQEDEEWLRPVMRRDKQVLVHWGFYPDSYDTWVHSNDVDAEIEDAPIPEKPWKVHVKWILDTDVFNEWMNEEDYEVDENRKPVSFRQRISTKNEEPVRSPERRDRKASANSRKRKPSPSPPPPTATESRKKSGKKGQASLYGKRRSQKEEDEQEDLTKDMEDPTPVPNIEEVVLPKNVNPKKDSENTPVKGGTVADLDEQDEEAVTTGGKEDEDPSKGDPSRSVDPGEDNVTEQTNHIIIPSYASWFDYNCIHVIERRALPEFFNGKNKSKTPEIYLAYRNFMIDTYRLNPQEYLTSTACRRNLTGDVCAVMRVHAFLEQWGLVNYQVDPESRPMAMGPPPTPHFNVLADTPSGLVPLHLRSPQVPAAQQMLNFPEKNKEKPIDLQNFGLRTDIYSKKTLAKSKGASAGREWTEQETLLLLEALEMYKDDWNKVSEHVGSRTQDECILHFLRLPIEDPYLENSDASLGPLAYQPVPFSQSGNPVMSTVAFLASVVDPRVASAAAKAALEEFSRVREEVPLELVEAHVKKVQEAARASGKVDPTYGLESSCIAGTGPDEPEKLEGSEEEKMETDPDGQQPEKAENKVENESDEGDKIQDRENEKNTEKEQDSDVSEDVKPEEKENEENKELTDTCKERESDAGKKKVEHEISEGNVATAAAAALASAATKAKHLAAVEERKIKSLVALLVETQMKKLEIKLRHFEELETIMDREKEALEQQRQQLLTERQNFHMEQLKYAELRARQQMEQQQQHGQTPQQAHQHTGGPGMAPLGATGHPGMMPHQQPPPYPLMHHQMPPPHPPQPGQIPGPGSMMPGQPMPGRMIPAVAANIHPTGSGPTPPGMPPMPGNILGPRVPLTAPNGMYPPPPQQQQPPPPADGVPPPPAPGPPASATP
UniProt Q3TKT4: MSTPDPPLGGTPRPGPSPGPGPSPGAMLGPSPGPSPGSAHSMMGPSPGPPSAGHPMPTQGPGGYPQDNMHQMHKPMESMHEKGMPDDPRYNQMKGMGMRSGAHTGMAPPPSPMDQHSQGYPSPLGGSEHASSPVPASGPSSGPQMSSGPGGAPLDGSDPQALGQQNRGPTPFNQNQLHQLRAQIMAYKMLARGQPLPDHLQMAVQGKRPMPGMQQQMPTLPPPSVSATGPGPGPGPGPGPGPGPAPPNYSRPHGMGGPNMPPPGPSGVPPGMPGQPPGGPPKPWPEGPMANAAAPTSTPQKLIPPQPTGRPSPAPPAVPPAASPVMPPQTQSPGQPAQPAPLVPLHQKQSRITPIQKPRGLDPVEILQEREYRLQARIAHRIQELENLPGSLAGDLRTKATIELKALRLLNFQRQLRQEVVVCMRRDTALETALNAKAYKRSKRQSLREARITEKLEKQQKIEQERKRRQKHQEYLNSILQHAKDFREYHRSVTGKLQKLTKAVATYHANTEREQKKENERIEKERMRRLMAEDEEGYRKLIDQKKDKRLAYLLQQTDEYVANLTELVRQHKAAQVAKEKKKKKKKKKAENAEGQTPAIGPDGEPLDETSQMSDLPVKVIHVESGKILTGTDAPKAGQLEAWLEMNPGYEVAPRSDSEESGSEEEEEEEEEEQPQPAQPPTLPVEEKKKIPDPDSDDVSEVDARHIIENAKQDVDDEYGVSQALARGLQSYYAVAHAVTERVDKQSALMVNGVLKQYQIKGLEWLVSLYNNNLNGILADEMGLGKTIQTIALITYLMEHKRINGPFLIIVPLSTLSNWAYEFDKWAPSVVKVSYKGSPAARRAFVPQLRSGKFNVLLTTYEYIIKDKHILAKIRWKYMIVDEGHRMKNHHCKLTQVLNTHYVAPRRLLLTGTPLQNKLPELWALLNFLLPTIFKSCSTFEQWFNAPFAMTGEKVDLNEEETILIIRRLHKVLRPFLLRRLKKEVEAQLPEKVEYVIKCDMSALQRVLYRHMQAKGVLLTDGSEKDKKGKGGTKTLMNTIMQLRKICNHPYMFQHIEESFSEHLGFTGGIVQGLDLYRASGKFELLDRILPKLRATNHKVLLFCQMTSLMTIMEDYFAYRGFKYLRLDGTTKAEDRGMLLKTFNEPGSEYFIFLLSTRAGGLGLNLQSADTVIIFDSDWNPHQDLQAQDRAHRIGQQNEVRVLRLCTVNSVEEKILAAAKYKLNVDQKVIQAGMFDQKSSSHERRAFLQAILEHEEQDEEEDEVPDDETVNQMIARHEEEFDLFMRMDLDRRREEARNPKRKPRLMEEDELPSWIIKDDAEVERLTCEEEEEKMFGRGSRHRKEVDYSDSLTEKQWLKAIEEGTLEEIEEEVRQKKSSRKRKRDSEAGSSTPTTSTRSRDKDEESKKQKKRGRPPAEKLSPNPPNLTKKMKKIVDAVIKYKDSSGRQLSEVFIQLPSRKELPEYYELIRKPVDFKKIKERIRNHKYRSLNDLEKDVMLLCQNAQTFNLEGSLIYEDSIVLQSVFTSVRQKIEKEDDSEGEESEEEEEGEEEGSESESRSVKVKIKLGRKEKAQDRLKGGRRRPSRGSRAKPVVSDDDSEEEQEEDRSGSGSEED

No constants are given. Whether binding was seen depends on the method and setting. In cells and extracts the contact can be indirect. Some entries that bind do so weakly or less than the wild type.

This experiment addresses Nanog^BiD (UniProt Q62280). Put plainly: co-IP; whole cell lysate in NP-40 buffer (50 mM Tris pH 7.4, 200 mM NaCl, 1% NP40) incubated overnight at 4 °C with anti-FLAG M2 magnetic beads for 3xFLAG-tagged Nanog^WT or Nanog^BiD; western blot of SMARCC1, SMARCA4, FLAG, NANOG. (In general: In western blotting, separated proteins are transferred to a membrane and probed.)

SMARCC1 (from UniProt P97496 1-1104): the binding result was “binds”. In the case of “SMARCA4/BRG1 (from UniProt Q3TKT4 1-1613)” it was “binds”.
